Experimental data from patent US8618097B2, “Pyrimidyl cyclopentanes as AKT protein kinase inhibitors” (Array Biopharma, Inc., priority 2007, dated 2013).
Structures can show the parent of a compound that is named as a salt. Some of these results come from one statement about several compounds together.

Amino acid sequences for entries named in this document (tags omitted). A change or cut given only in a name is not applied to a line headed by its entry.
UniProt P31749: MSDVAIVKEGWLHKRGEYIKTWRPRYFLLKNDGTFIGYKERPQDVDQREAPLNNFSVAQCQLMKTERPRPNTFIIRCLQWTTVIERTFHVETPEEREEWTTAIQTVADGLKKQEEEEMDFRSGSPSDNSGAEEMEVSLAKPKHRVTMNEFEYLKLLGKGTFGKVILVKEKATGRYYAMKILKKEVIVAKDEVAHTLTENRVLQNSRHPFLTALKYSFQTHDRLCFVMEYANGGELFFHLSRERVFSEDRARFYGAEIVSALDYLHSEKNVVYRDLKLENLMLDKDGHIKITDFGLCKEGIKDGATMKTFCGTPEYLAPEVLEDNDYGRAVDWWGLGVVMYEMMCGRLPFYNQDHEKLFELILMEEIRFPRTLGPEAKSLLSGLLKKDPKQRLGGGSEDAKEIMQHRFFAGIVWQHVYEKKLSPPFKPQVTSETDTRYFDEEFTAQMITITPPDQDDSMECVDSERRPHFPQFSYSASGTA

Biological target: full-length human recombinant active AKT-1 (Homo sapiens, UniProt P31749)
Assay: AKT-1 Kinase Assay (IMAP fluorescence polarization)
Assay type: biochemical
Conditions: phosphorylation of fluorescently-labeled peptide (Crosstide) by AKT-1, fluorescent polarization, IMAP kit

Compound	IC50 [nM]
C[C@@H]1C[C@@H](O)c2ncnc(N3CCN(C(=O)[C@@H](c4ccc(F)c(F)c4)[C@@H]4CCC(C)(C)N4)CC3)c21 [Example 116, (S)-2-(3,4-difluorophenyl)-2-((S)-5,5-dimethylpyrrolidin-2-yl)-1-(4-((5R,7R)-7-hydroxy-5-methyl-6,7-dihydro-5H-cyclopenta[d]pyrimidin-4-yl)piperazin-1-yl) ethanone dihydrochloride]	< 1000
C[C@@H]1C[C@@H](O)c2ncnc(N3CCN(C(=O)[C@@H](c4ccc(F)cc4)[C@@H]4CCC(C)(C)N4)CC3)c21 [Example 117, (S)-2-((S)-5,5-dimethylpyrrolidin-2-yl)-2-(4-fluorophenyl)-1-(4-((5R,7R)-7-hydroxy-5-methyl-6,7-dihydro-5H-cyclopenta[d]pyrimidin-4-yl)piperazin-1-yl)ethanone dihydrochloride]	< 1000
C[C@@H]1C[C@@H](O)c2ncnc(N3CCN(C(=O)[C@@H](c4ccc(F)c(C(F)(F)F)c4)[C@@H]4CCC(C)(C)N4)CC3)c21 [Example 118, (S)-2-((S)-5,5-dimethylpyrrolidin-2-yl)-2-(4-fluoro-3-(trifluoromethyl)phenyl)-1-(4-((5R,7R)-7-hydroxy-5-methyl-6,7-dihydro-5H-cyclopenta[d]pyrimidin-4-yl)piperazin-1-yl)ethanone dihydrochloride]	< 1000
C[C@@H]1CCc2ncnc(N3CCN(C(=O)[C@@H](c4cccc(Cl)c4)[C@@H]4CCC(C)(C)N4)CC3)c21 [Example 119, (S)-2-(3-chlorophenyl)-2-((S)-5,5-dimethylpyrrolidin-2-yl)-1-(4-((R)-5-methyl-6,7-dihydro-5H-cyclopenta[d]pyrimidin-4-yl)piperazin-1-yl)ethanone dihydrochloride]	< 1000
C[C@@H]1C[C@@H](O)c2ncnc(N3CCN(C(=O)[C@@H](c4cccc(Br)c4)[C@@H]4CCC(C)(C)N4)CC3)c21 [Example 120, (S)-2-(3-bromophenyl)-2-((S)-5,5-dimethylpyrrolidin-2-yl)-1-(4-((5R,7R)-7-hydroxy-5-methyl-6,7-dihydro-5H-cyclopenta[d]pyrimidin-4-yl)piperazin-1-yl)ethanone dihydrochloride]	< 1000
C[C@@H]1CCc2ncnc(N3CCN(C(=O)[C@@H](c4cccc(Br)c4)[C@@H]4CCC(C)(C)N4)CC3)c21 [Example 121, (S)-2-(3-bromophenyl)-2-((S)-5,5-dimethylpyrrolidin-2-yl)-1-(4-((R)-5-methyl-6,7-dihydro-5H-cyclopenta[d]pyrimidin-4-yl)piperazin-1-yl)ethanone dihydrochloride]	< 1000
C[C@@H]1C[C@@H](O)c2ncnc(N3CCN(C(=O)[C@@H](c4cccc(C(F)(F)F)c4)[C@@H]4CCC(C)(C)N4)CC3)c21 [Example 122, (S)-2-((S)-5,5-dimethylpyrrolidin-2-yl)-1-(4-((5R,7R)-7-hydroxy-5-methyl-6,7-dihydro-5H-cyclopenta[d]pyrimidin-4-yl)piperazin-1-yl)-2-(3-(trifluoromethyl)phenyl)ethanone dihydrochloride]	< 1000
C[C@@H]1C[C@@H](O)c2ncnc(N3CCN(C(=O)[C@@H](c4cccc(F)c4)[C@@H]4CCC(C)(C)N4)CC3)c21 [Example 123, (S)-2-((S)-5,5-dimethylpyrrolidin-2-yl)-2-(3-fluorophenyl)-1-(4-((5R,7R)-7-hydroxy-5-methyl-6,7-dihydro-5H-cyclopenta[d]pyrimidin-4-yl)piperazin-1-yl)ethanone dihydrochloride]	< 1000
COc1ccc([C@H](C(=O)N2CCN(c3ncnc4c3[C@H](C)C[C@H]4O)CC2)[C@@H]2CCC(C)(C)N2)c(F)c1 [Example 124, (S)-2-((S)-5,5-dimethylpyrrolidin-2-yl)-2-(2-fluoro-4-methoxyphenyl)-1-(4-((5R,7R)-7-hydroxy-5-methyl-6,7-dihydro-5H-cyclopenta[d]pyrimidin-4-yl)piperazin-1-yl)ethanone dihydrochloride]	< 1000
C[C@@H]1C[C@@H](O)c2ncnc(N3CCN(C(=O)[C@@H](c4ccc(-c5cn[nH]c5)cc4)[C@@H]4CCC(C)(C)N4)CC3)c21 [Example 125, (S)-2-(4-(1H-pyrazol-4-yl)phenyl)-2-((S)-5,5-dimethylpyrrolidin-2-yl)-1-(4-((5R,7R)-7-hydroxy-5-methyl-6,7-dihydro-5H-cyclopenta[d]pyrimidin-4-yl)piperazin-1-yl)ethanone]	< 1000
C[C@@H]1C[C@@H](O)c2ncnc(N3CCN(C(=O)[C@@H](c4ccc(-c5ccccc5)cc4)[C@@H]4CCC(C)(C)N4)CC3)c21 [Example 126, (S)-2-(biphenyl-4-yl)-2-((S)-5,5-dimethylpyrrolidin-2-yl)-1-(4-((5R,7R)-7-hydroxy-5-methyl-6,7-dihydro-5H-cyclopenta[d]pyrimidin-4-yl)piperazin-1-yl)ethanone]	< 1000
C[C@@H]1C[C@@H](O)c2ncnc(N3CCN(C(=O)[C@@H](c4ccc(-c5cnc(N)nc5)cc4)[C@@H]4CCC(C)(C)N4)CC3)c21 [Example 127, (S)-2-(4-(2-aminopyrimidin-5-yl)phenyl)-2-((S)-5,5-dimethylpyrrolidin-2-yl)-1-(4-((5R,7R)-7-hydroxy-5-methyl-6,7-dihydro-5H-cyclopenta[d]pyrimidin-4-yl)piperazin-1-yl)ethanone]	< 1000
C[C@@H]1C[C@@H](O)c2ncnc(N3CCN(C(=O)[C@@H](c4ccc(C(C)(C)C)cc4)[C@@H]4CCC(C)(C)N4)CC3)c21 [Example 128, (S)-2-(4-tert-butylphenyl)-2-((S)-5,5-dimethylpyrrolidin-2-yl)-1-(4-((5R,7R)-7-hydroxy-5-methyl-6,7-dihydro-5H-cyclopenta[d]pyrimidin-4-yl)piperazin-1-yl)ethanone dihydrochloride]	< 1000
C[C@@H]1C[C@@H](O)c2ncnc(N3CCN(C(=O)[C@@H](c4ccc(C(F)(F)F)c(F)c4F)[C@@H]4CCC(C)(C)N4)CC3)c21 [Example 129, (S)-2-(2,3-difluoro-4-(trifluoromethyl)phenyl)-2-((S)-5,5-dimethylpyrrolidin-2-yl)-1-(4-((5R,7R)-7-hydroxy-5-methyl-6,7-dihydro-5H-cyclopenta[d]pyrimidin-4-yl)piperazin-1-yl)ethanone]	< 1000
C[C@@H]1C[C@@H](O)c2ncnc(N3CCN(C(=O)[C@@H](c4cccc(C(F)(F)F)c4F)[C@@H]4CCC(C)(C)N4)CC3)c21 [Example 130, (S)-2-((S)-5,5-dimethylpyrrolidin-2-yl)-2-(2-fluoro-3-(trifluoromethyl)phenyl)-1-(4-((5R,7R)-7-hydroxy-5-methyl-6,7-dihydro-5H-cyclopenta[d]pyrimidin-4-yl)piperazin-1-yl)ethanone]	< 1000
C[C@@H]1C[C@@H](O)c2ncnc(N3CCN(C(=O)[C@@H](c4cc(C(F)(F)F)ccc4F)[C@@H]4CCC(C)(C)N4)CC3)c21 [Example 131, (S)-2-((S)-5,5-dimethylpyrrolidin-2-yl)-2-(2-fluoro-5-(trifluoromethyl)phenyl)-1-(4-((5R,7R)-7-hydroxy-5-methyl-6,7-dihydro-5H-cyclopenta[d]pyrimidin-4-yl)piperazin-1-yl)ethanone]	< 1000
C[C@@H]1C[C@@H](O)c2ncnc(N3CCN(C(=O)[C@@H](c4ccc(C(F)(F)F)cc4)[C@@H]4CCC(=O)N4)CC3)c21 [Example 132, (S)-5-((S)-2-(4-((5R,7R)-7-hydroxy-5-methyl-6,7-dihydro-5H-cyclopenta[d]pyrimidin-4-yl)piperazin-1-yl)-2-oxo-1-(4-(trifluoromethyl)phenyl)ethyl)pyrrolidin-2-one]	< 1000
C[C@@H]1C[C@@H](O)c2ncnc(N3CCN(C(=O)[C@@H](c4ccc(C(F)(F)F)cc4)[C@H]4CCC(=O)N4)CC3)c21 [Example 133, (R)-5-((S)-2-(4-((5R,7R)-7-hydroxy-5-methyl-6,7-dihydro-5H-cyclopenta[d]pyrimidin-4-yl)piperazin-1-yl)-2-oxo-1-(4-(trifluoromethyl)phenyl)ethyl)pyrrolidin-2-one]	< 1000
C[C@@H]1C[C@@H](O)c2ncnc(N3CCN(C(=O)[C@@H](c4ccc(Cl)cc4)[C@H]4CCC(=O)N4)CC3)c21 [Example 135, (R)-5-((S)-1-(4-chlorophenyl)-2-(4-((5R,7R)-7-hydroxy-5-methyl-6,7-dihydro-5H-cyclopenta[d]pyrimidin-4-yl)piperazin-1-yl)-2-oxoethyl)pyrrolidin-2-one]	< 1000
C[C@@H]1C[C@@H](O)c2ncnc(N3CCN(C(=O)[C@@H](c4ccc(Cl)cc4)[C@@H]4CCC(=O)N4)CC3)c21 [Example 136, (S)-5-((S)-1-(4-chlorophenyl)-2-(4-((5R,7R)-7-hydroxy-5-methyl-6,7-dihydro-5H-cyclopenta[d]pyrimidin-4-yl)piperazin-1-yl)-2-oxoethyl)pyrrolidin-2-one]	< 1000
C[C@@H]1C[C@@H](O)c2ncnc(N3CCN(C(=O)[C@@H](c4ccc(OC(F)(F)F)cc4)[C@@H]4CCC(C)(C)N4)CC3)c21 [Example 137, (S)-2-((S)-5,5-dimethylpyrrolidin-2-yl)-1-(4-((5R,7R)-7-hydroxy-5-methyl-6,7-dihydro-5H-cyclopenta [d]pyrimidin-4-yl)piperazin-1-yl)-2-(4-(trifluoromethoxy)phenyl)ethanone]	< 1000
C[C@@H]1C[C@@H](O)c2ncnc(N3CCN(C(=O)[C@@H](c4ccc(OC(F)(F)F)c(F)c4)[C@@H]4CCC(C)(C)N4)CC3)c21 [Example 138]	< 1000
C[C@@H]1C[C@@H](O)c2ncnc(N3CCN(C(=O)[C@@H](c4ccc(Br)s4)[C@@H]4CCC(C)(C)N4)CC3)c21 [Example 139, (S)-2-(5-bromothiophen-2-yl)-2-((S)-5,5-dimethylpyrrolidin-2-yl)-1-(4-((5R,7R)-7-hydroxy-5-methyl-6,7-dihydro-5H-cyclopenta[d]pyrimidin-4-yl)piperazin-1-yl)ethanone]	< 1000
C[C@@H]1C[C@@H](O)c2ncnc(N3CCN(C(=O)[C@@H](c4ccc(Cl)s4)[C@@H]4CCC(C)(C)N4)CC3)c21 [Example 140, (S)-2-(5-chlorothiophen-2-yl)-2-((S)-5,5-dimethylpyrrolidin-2-yl)-1-(4-((5R,7R)-7-hydroxy-5-methyl-6,7-dihydro-5H-cyclopenta[d]pyrimidin-4-yl)piperazin-1-yl)ethanone]	< 1000
